According to patent US9293713B2, “Arylamine compound” (RICOH COMPANY, LTD., priority 2012, dated 2016):

Assay: Preparation of thin film and evaluation (polarization microscope, scanning probe microscope)

For `CCCCCC(=O)OC1CCC(OC(=O)CCCCC)c2cc(N(c3ccc(-c4ccc(N(c5ccc6c(c5)C(OC(=O)CCCCC)CCC6OC(=O)CCCCC)c5ccc6ccccc6c5)cc4)cc3)c3ccc4ccccc4c3)ccc21` (centres unmarked) [HTL17], the “thin film observation after annealing” value (annealing at 180° C. for 60 minutes under argon, polarization microscope) was “crystallization was not observed” and the thin film observation (film from 1.0% by mass chloroform solution on silicon substrate, before annealing) was “smooth and continuous amorphous film was formed”.
